The nature of the series: Western blot of NGF-FITC within corneal stroma. For orientation: In western blotting, separated proteins are transferred to a membrane and probed.

“NGF-FITC: fluorescein-isothiocyanate (FITC)-labeled conjugate of NGF”: the “NGF surface concentration on corneal stroma (normalized band intensity)” value is “higher NGF surface concentration” (V-CXL coupling vs topical delivery alone) and “higher NGF surface concentration” (non-photochemical crosslinking vs topical delivery alone).
